# Screening data, single-dose tests

From ChEMBL document CHEMBL3988442, “University of Dundee, Small-Polar-MMV Screening Library” (2021).

Toxoplasma: 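Assay of Toxoplasma gondii numbers, read through their beta-galactosidase reporter with a colour substrate. Tested at 10 µM. The record gives no direction; the compounds picked for IC50 retests had high values, so higher reads as fewer parasites. About 67,000 compounds were tested under these conditions; 0.38% (about 260) showed 50% or more at least once.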
Leishmania in macrophages: 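Cell assay of Leishmania donovani living inside macrophages; the read-out is not stated. Tested at 30 µM. The record gives no direction; compounds that gave an IC50 in retests scored well above the rest, so higher reads as stronger inhibition. About 69,000 compounds were tested under these conditions; 1.5% (about 1,000) showed 50% or more at least once.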

Each number is a percent effect as filed. The record does not define 0% and 100%; most values in the screen are far below 50% and negative numbers occur (in some assays of this library far below -100). Compounds were drawn at random from those tested, without regard to their results. Two or more numbers in one place are separate tests of the same structure; such repeats can differ widely.

| # | structure | Toxoplasma | Leishmania in macrophages |
|---|---|---|---|
| 1 | `Cc1nc2c(C#N)cnn2c(C)c1CCC(=O)N(C)C(C)C(C)C` (stereo not shown) | -9.796% | -22.8% |
| 2 | `COc1ccccc1-n1nc(CC(C)C)nc1Cc1nnc(N)s1` | 7.433% | -4.163% |
| 3 | `O=C(Cn1cccn1)N1CCc2[nH]nc(-c3ccc4c(c3)OCO4)c2C1` | -5.772% | -11.93% |
| 4 | `CN1CCc2c(sc3c2C(=O)NC(/C=C/c2ccccc2)N3)C1` (stereo not shown) | -13.22% | 2.724% |
| 5 | `CC(C)(C)c1cc(NC(=O)CN2CCCCC2Cn2cncn2)on1` (stereo not shown) | 2.049% | 11.4% |
| 6 | `COc1c(CNC2CCCOc3ccccc32)c(C)nn1C` (stereo not shown) | 2.499% | 35.65% |
| 7 | `CCc1c(O)nc(SCC(=O)N(CC)CC)n(C(C)CC)c1=O` (stereo not shown) | 5.786% | 10.39% |
| 8 | `CS(=O)(=O)c1ccc(C(=O)N2CCCC(n3cccn3)C2)cc1` (stereo not shown) | -5.712% | 23.04% |
| 9 | `O=C(Cc1ccc(F)cc1)N1CCN(CC(O)c2ccccc2)CC1` (stereo not shown) | -3.35% | 22.16% |
| 10 | `Cc1ccoc1C(=O)NC1CCN(CC(=O)N(C)c2ccccc2)CC1` | -23.95% | -13.23% |
| 11 | `Cc1[nH]c2ccccc2c1CCNC(=O)N1CCC2(C1)OCCO2` | -8.591% | 34.83% |
| 12 | `O=C(O)C(F)(F)F.[H][C@@]12CCN(Cc3nccs3)[C@]1([H])C[C@@H](C(=O)N(C)C)O2` | -12.03% | -6.687% |
| 13 | `CC(C)(C)CC(=O)NS(=O)(=O)c1ccc(F)cc1C(F)(F)F` | -1.815% | 3.58% |
| 14 | `CCOC1COC2(CCN(Cc3ccco3)CC2)C1.O=C(O)C(F)(F)F` (stereo not shown) | -0.4025% | -14.93% |
| 15 | `COc1cc2c(cc1-c1nc3c(cnn3C(C)C)[nH]1)OCO2` | 3.984% | -15.02% |
| 16 | `[H][C@@]12CCN(C(=O)c3ccno3)[C@]1([H])CCC(=O)N2Cc1csc(C)n1` | -8.994% | 27.19% |
| 17 | `Clc1ccccc1OC1CN(CC2CCOC2)C1` (stereo not shown) | -14.49% | 20.95% |
| 18 | `COc1ccc(N(C(=O)c2cnc(C)cn2)C(C)C)cc1F` | 13% | 12.74% |
| 19 | `Cc1nc2ccccc2nc1CN1CCOC(Cn2cccn2)C1` (stereo not shown) | -11.64% | 24.28% |
| 20 | `COc1ccc(OCCN(C)Cc2nc3c(cnn3C)c(=O)[nH]2)cc1` | -33.1% | 12.2% |
| 21 | `CCOCC(=O)N1CCC(Oc2ccc(Cl)cn2)CC1` | -1.774% | 16.98% |
| 22 | `O=C(O)C(F)(F)F.[H][C@@]12CCN(C(=O)c3cccn3C)[C@@]1([H])CC(=O)N2CCN1CCOCC1` | -9.911% | 10.15% |
| 23 | `COCCC1(CO)CCCN(C(=O)c2cc(Cl)ccc2F)C1` (stereo not shown) | -5.603% | 26.65% |
| 24 | `O=C(CCc1nnc2ccccn2c1=O)NCc1cccnc1` | -5.447% | -18.41% |
| 25 | `CN1CCOCC2(CCCN(C(=O)c3cnccn3)C2)C1.O=C(O)C(F)(F)F` (stereo not shown) | -5.706% | 23.42% |
| 26 | `Cc1nn(C)c2ncnc(NCc3nncn3C3CCCCC3)c12` | -6.678% | 16.12% |
| 27 | `CNC(=O)[C@@H]1C[C@@H](N)CN1C1CCN(Cc2ccccn2)CC1` | 7.387% | -17.67% |
| 28 | `CN1CCC(C(=O)N2CCN(Cc3cccc(Cl)c3)CC2)CC1=O` (stereo not shown) | 5.08% | 17.16% |
| 29 | `CC(=O)NC1CCCN(C(=O)c2ccc(Br)cc2O)C1` (stereo not shown) | 16.94% | 10.03% |
| 30 | `COc1ccc2c(c1)C1(CCN(Cc3nccs3)CC1)N(C)CC2.O=C(O)C(F)(F)F.O=C(O)C(F)(F)F` | -0.3944% | 9.495% |
| 31 | `COc1ccccc1NC(=O)N1CCCC1c1ccco1` (stereo not shown) | 7.682% | 8.407% |
| 32 | `CC(C)c1noc(C2CCCN2C(=O)CN2CCc3ccccc32)n1` (stereo not shown) | -25.36% | 9.449% |
| 33 | `CCC(O)CN(Cc1cccc(C(=O)N(C)C)c1)c1ccccc1` (stereo not shown) | 1.935% | 17.83% |
| 34 | `CCOCC(=O)NC1(c2cccc(Br)c2)CC1` | 0.1154% | 0.9274% |
| 35 | `CC(C)c1nccn1C1CCCN(C(=O)c2ccsc2)C1` (stereo not shown) | 4.748% | 17.27% |
| 36 | `Cc1nc(CC(=O)N2CCCC[C@H](N(C)C)C2)cs1` | -8.998% | -5.175% |
| 37 | `CSC(C)CCN(Cc1ccccn1)Cc1sccc1C` (stereo not shown) | -5.492% | 31.81% |
| 38 | `O=C(c1ccsc1)N1CCC2(CCN2Cc2ccc(F)cc2)C1` (stereo not shown) | 0.1596% | 13.8% |
| 39 | `[H][C@@]12CN(Cc3ccccc3)C[C@]1([H])OCC(=O)N2CC(N)=O` | -23.67% | 8.241% |
| 40 | `Cc1nc2cc(=O)[nH]n2c(C)c1CC(=O)NCCCc1ccccc1` | -0.5289% | 18.85% |
| 41 | `CCn1cc(-c2n[nH]c(=O)n2-c2ccc3c(c2)OCO3)c(C)n1` | -8.115% | -5.755% |
| 42 | `Cc1cc(CNC(=O)N2CCc3ccccc32)on1` | -4.273% | 12.46% |
| 43 | `COc1cccc2c1ccn2CCNC(=O)C(C)C` | -8.846% | 23.38% |
| 44 | `CCOc1ccccc1CNS(=O)(=O)c1ccc2c(c1)CCCC(=O)N2` | 5.391% | 45.56% |
| 45 | `OCCCN1CCc2onc(C(c3ccccc3)c3ccccc3)c2C1` | 2.934% | 48.72% |
| 46 | `Cc1cccc(N2CCN(CCC(=O)NCc3cnc(C)cn3)CC2)c1` | -20.03% | -25.91% |
| 47 | `COCC(C)NC(=O)c1sccc1-n1cnnn1` (stereo not shown) | 19.85% | -19.38% |
| 48 | `Cc1csc(N2CCCN(Cc3noc(C)n3)CC2)n1` | 4.781% | 3.127% |
| 49 | `[H][C@@]12CN(c3ccc(C)nn3)C[C@@H](C(=O)NC3CCCC3)[C@]1([H])CCO2` | 23.15% | 28.32% |
| 50 | `CCn1ncc2c1C(COC)N(C(=O)c1ccc3c(c1)OCO3)CC2.O=C(O)C(F)(F)F` (stereo not shown) | -5.2% | -10.91% |
| 51 | `[H][C@@]12CCN(Cc3nccs3)C[C@]1([H])[C@H](c1nc(C)no1)CCO2` | -10.41% | 8.406% |
| 52 | `COc1ncccc1CNC(=O)NCc1ccco1` | -8.663% | 28.02% |
| 53 | `Cc1nc(C2CCN(C(=O)c3ccn(C)n3)CC2)c2sccn12` | 2.181% | 84.21% & 35% |
| 54 | `CCn1cnnc1CNC(=O)N(C)Cc1ccc(Cl)cc1Cl` | 1.536% | -15.26% |
| 55 | `Cc1nn(C)c2ncnc(N3CCCC(C)(O)C3)c12` (stereo not shown) | 1.639% | -17.2% |
| 56 | `COCC(=O)N1CCC2(COCc3cnc(-c4ccccc4)nc32)C1` (stereo not shown) | 3.195% | 9.71% |
| 57 | `CCN(C)C(=O)CCC(=O)c1cccs1` | 9.532% | 26.68% |
| 58 | `COc1cccc2c1OCC(C(=O)NCCn1nc(C)c(Cl)c1C)C2` (stereo not shown) | 17.98% | 24.84% |
| 59 | `CCn1nc(CC(C)C)cc1C(=O)NCCCN1CCOCC1` | 19.43% | 28.71% |
| 60 | `Cc1cnn(CCC(=O)N2CCCC(c3ccn[nH]3)C2)c1` (stereo not shown) | -6.517% | 22.38% |
| 61 | `O=S(=O)(CCCn1cncn1)Cc1ccc(F)cc1Cl` | 0% | 27.68% |
| 62 | `CN(C)C(=O)CN1CCC2(CCCN(Cc3cccnc3)C2)C1=O.O=C(O)C(F)(F)F.O=C(O)C(F)(F)F` (stereo not shown) | -6.881% | -8.152% |
| 63 | `COCCNc1nc(NCCc2ccccc2)nc2nccnc12` | -0.1997% | -6.706% |
| 64 | `Cc1ccc(CNC(=O)NCc2nccn2C)c(OC(C)(C)C)c1` | 2.505% | 23.4% |
| 65 | `Cc1ccc(NC(=O)C2=CN=S=N2)cc1` | -0.7493% | 0.9911% |
| 66 | `CN(Cc1ccc(Cl)s1)C(=O)c1cccc(OCC(N)=O)c1` | -33.58% | 6.072% |
| 67 | `Cc1csc2c(C3CCN(C(=O)Cn4cncn4)CC3)nc(C)n12` | 12.47% | 31.12% |
| 68 | `Nc1nccnc1C(=O)NC1CCCN(Cc2c(F)cccc2F)C1` (stereo not shown) | 6.655% | -4.354% |
| 69 | `[H][C@@]12OCCC[C@]1([H])N(C(=O)c1cnc(C)cn1)C[C@@H]2N1CCOCC1` | -15.1% | -6.081% |
| 70 | `Cc1ccsc1CN1CCC(c2nnc(Cn3cccn3)n2C)CC1` | -12.81% | -15.13% |
| 71 | `CCCc1cc(N2CCCC2Cn2nc(C)nc2C)n2ncnc2n1` (stereo not shown) | 4.566% | 14.45% |
| 72 | `N#Cc1cccn(CCOc2ccc(Cl)cc2)c1=O` | -1.391% | 9.594% |
| 73 | `c1ncc(-c2cn(CCSc3cnn[nH]3)nn2)cn1` | -41.54% | 13.73% |
| 74 | `Cc1cccnc1CNc1cc(N2CCCC2CO)ncn1` (stereo not shown) | -2.223% | 33.4% |
| 75 | `Cc1cnc(CN2CCCC(c3nc4ccccc4n3C(C)C)C2)o1` (stereo not shown) | -1.443% | 11.54% |
| 76 | `CC(=O)N(C)C1CCCc2nc(C)sc21` (stereo not shown) | -1.55% | -16.18% |
| 77 | `COCc1nc2cc(NCc3ncc[nH]3)ccc2o1` | -1.34% | 23.85% |
| 78 | `CNC(=O)c1ccc(NC2CCN(CC(F)(F)F)C2=O)cc1Cl` (stereo not shown) | -1.263% | 28.24% |
| 79 | `CCc1nnc2n1CCN(C(=O)CCc1ccc(C)c(Cl)c1)C2` | 15.23% | 0.9016% |
| 80 | `CSc1cccc(NC(C)C(=O)Nc2nccs2)c1` (stereo not shown) | -0.3976% | -15.64% |
| 81 | `O=C(O)C(F)(F)F.O=C(c1cccc(F)c1)N1CCC2(CC1)CC(N1CCOCC1)C2` | 17.1% | 16.64% |
| 82 | `Cc1ccc(CNc2cc(N3CCCC3CO)ncn2)s1` (stereo not shown) | 11.12% | -18.76% |
| 83 | `CC(=O)N1C[C@H](NC(=O)c2csc(C(C)C)c2)[C@@H](C(C)C)C1` | 8.511% | -26.96% |
| 84 | `O=C1CC(N(C(=O)COc2ccc(F)cc2F)C2CC2)C(=O)N1` (stereo not shown) | 13.33% | 4.048% |

Repeated from the top, 6 entries:

Cc1nc2c(C#N)cnn2c(C)c1CCC(=O)N(C)C(C)C(C)C (stereo not shown) read Toxoplasma: -9.796%; Leishmania in macrophages: -22.8%.
COc1ccccc1-n1nc(CC(C)C)nc1Cc1nnc(N)s1 read Toxoplasma: 7.433%; Leishmania in macrophages: -4.163%.
O=C(Cn1cccn1)N1CCc2[nH]nc(-c3ccc4c(c3)OCO4)c2C1 read Toxoplasma: -5.772%; Leishmania in macrophages: -11.93%.
CN1CCc2c(sc3c2C(=O)NC(/C=C/c2ccccc2)N3)C1 (stereo not shown) read Toxoplasma: -13.22%; Leishmania in macrophages: 2.724%.
CC(C)(C)c1cc(NC(=O)CN2CCCCC2Cn2cncn2)on1 (stereo not shown) read Toxoplasma: 2.049%; Leishmania in macrophages: 11.4%.
COc1c(CNC2CCCOc3ccccc32)c(C)nn1C (stereo not shown) read Toxoplasma: 2.499%; Leishmania in macrophages: 35.65%.